The target in this test is Flag-METTL3 (human) (UniProt Q86U44). Kind of test: affinity purification with mass spectrometry; U87-MG cells infected with lentivirus encoding Flag-METTL3 for 36 h, 25 uM MG132 for 6 h; Flag immunoprecipitation, SDS-PAGE, Coomassie staining, LC-MS/MS of gel segments.

The chains behind the UniProt entries cited, without tags or fusion partners.
UniProt Q86U44: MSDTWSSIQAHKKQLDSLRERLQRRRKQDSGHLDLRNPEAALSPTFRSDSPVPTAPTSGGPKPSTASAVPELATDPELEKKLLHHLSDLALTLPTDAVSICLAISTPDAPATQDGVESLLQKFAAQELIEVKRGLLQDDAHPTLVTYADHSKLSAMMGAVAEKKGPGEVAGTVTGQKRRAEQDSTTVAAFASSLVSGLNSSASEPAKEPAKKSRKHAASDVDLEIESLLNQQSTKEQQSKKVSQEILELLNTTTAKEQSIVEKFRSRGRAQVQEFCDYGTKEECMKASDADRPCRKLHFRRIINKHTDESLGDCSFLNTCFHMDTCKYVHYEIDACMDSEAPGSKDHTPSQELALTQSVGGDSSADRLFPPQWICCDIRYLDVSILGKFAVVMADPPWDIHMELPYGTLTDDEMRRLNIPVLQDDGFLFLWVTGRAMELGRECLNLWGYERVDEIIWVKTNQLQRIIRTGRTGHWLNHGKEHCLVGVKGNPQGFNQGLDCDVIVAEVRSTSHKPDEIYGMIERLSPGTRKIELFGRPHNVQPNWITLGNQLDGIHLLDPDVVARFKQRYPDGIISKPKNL
UniProt Q9UHP3: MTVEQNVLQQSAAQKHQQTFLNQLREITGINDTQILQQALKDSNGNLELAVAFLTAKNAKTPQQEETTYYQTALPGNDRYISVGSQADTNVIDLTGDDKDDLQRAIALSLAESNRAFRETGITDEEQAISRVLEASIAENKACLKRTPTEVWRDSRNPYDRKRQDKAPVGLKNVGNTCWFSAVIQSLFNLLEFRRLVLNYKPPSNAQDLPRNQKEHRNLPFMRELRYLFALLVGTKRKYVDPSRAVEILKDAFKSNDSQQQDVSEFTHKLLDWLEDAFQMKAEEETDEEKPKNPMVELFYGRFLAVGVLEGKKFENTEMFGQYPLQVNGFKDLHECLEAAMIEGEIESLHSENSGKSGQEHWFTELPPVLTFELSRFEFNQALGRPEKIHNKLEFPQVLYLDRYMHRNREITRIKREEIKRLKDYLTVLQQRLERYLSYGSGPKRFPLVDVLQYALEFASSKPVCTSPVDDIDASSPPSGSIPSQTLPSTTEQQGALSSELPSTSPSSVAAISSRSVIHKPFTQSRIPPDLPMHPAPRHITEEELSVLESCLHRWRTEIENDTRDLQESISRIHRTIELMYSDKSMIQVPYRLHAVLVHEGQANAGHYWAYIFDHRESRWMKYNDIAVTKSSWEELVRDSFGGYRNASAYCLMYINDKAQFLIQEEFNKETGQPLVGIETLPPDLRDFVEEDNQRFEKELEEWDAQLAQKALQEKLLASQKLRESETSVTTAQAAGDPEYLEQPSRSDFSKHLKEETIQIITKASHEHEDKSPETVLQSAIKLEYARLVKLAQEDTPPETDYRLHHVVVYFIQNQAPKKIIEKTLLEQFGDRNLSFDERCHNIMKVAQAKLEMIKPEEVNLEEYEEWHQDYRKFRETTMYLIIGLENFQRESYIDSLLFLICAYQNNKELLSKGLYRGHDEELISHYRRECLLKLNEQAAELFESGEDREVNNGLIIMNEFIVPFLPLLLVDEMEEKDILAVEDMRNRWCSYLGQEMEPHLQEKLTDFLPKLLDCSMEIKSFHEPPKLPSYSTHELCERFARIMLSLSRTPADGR

The record followed here is paper PMC12661985, “USP25 deubiquitinates cytosolic METTL3 to impede glioma proliferation via an m6A-independent pathway” (iScience, 2025).

No constants are given. Whether binding was seen depends on the method and setting. Binding seen in cells or lysates may run through a third protein. Here binding means that the protein was enriched with, or labelled near, the bait; the list need not be complete.

Turning to “USP25 (endogenous) (from UniProt Q9UHP3 1-1055) (enzyme)”, the binding entry is on record as “binds”.
